Reference: patent US20160201132A1, “GENE EXPRESSION BIOMARKERS OF LAQUINIMOD RESPONSIVENESS” (Teva Pharmaceutical Industries Ltd., priority 2013, published 2016)
Where “and” joins values, the source holds several entries; their conditions need not be identical. Equal values may be shown once. This continues a long series; more values of the same kind are listed elsewhere.

Tested on: PBMC of RRMS patients
Assay: Gene expression microarray analysis (HG-U133A-2) of PBMC from RRMS patients treated with LAQ, ancillary study to ALLEGRO
Format: in vivo, human
Excerpt: The goal of this ancillary study was to characterize gene expression changes and corresponding biological mechanisms induced in PBMC of RRMS patients by LAQ treatment. According to ALLEGRO clinical trial inclusion criteria, 25 patients were randomly assigned to receive LAQ (n=13, age 38.8±2.3 years, female/male ratio: 8/5) or placebo (n=12, age 37.2±3.4 years, female/male ratio: 8/4).
Peripheral blood samples were obtained from RRMS patients at baseline before start of LAQ treatment or placebo, after 0, 1, 6 and 24 month of treatment (visit 0, 1, 6 and 7 according to ALLEGRO clinical trial protocol correspondently) for gene microarray analysis.
Briefly, 1) Peripheral blood mononuclear cells (PBMC) were obtained from RRMS patients that participated in ALLEGRO and were treated daily with 0.6 mg LAQ or placebo. PBMC were subjected for gene expression analysis (HU-133A-2-Affymatrix arrays) at baseline and at 1 and 6 months of LAQ treatment; 2) Data was analyzed by Partek Genomics Solution software. Most informative genes (MIGs) were defined as those that differentiated between groups with p<0.01. Gene functional annotation, enrichment and pathway analysis were performed by Ingenuity software. For each time point, genes that changed in placebo group were excluded from further analysis; and 3) Verification of LAQ related mechanism was performed by Western blot.
PBMC were extracted from 15 ml peripheral blood, separated by Ficoll-Hypaque gradient. Total RNA was extracted using both Trizol (Invitrogen, USA) and Phase-Lock-Gel columns (Eppendorf, Germany) including a DNase digestion step. RNA integrity was assessed by RNA Experion automated electrophoresis system (Bio-Rad Laboratories, Hercules, Calif.).
Probe synthesis using 3 μg total RNA, hybridization, detection, and scanning was performed according to the standard Affymetrix, Inc. USA protocols; cDNA was synthesized using the Two-Cycle cDNA Synthesis Kit (Affymetrix, Inc., USA), and in-vitro transcription performed with the GeneChip IVT Labeling Kit (Affymetrix, Inc., USA). The biotin-labeled IVT-RNA was hybridized to HG-U133A-2 arrays containing 18,400 gene transcripts, each corresponding to 14,500 well-annotated human genes, washed in a GeneChip Fluidics Station 450 (Hewlett Packard, USA, GeneArray-™ scanner G2500A) and scanned according to the manufacturer's protocol (Affymetrix, Inc., USA).
Data analysis was performed on Partek Genomics Solution software (www.partek.com; Partek Incorporated, St. Louis, Mo.). Expression values were computed from raw CEL files by applying the Robust Multi-Chip Average (RMA) background correction algorithm. RMA correction included: 1) values background correction; 2) quintile normalization; 3) log 2 transformation; and 4) median polish summarization. The ANOVA, Repeated Measures and correlation analysis implicated in Partek software ware applied to evaluate LAQ effects. Most informative genes MIGs were defined as those that differentiated between experimental groups with p<0.01. All p-values were calculated for False Discovery Rate (FDR) multiple test correction at p=0.05.
Additionally, significance of individual genes was tested by parametric T-test and non parametric Mann-Whitney test using Bootstrapping approach based on repeated permutations of the data with 5% FDR for multiple testing.
Gene functional annotation, enrichment, and pathway analyses to identify the leading biological pathways that operated under LAQ treatment were performed by Ingenuity Pathways Analysis software (www.ingenuity.com).
ANOVA analysis was used to compare PBMC gene expression after 1, 6 or 24 month of LAQ treatment with baseline gene expression.
For each time point inventors performed analysis source of variation in dataset. (FIG. 1). Age, gender and batch effects were considered as confounders regarding LAQ or Placebo related changes. For each time point genes associated with Placebo effect were evaluated and excluded from further analysis. […]

## CCN(C(=O)c1c(O)c2c(Cl)cccc2n(C)c1=O)c1ccccc1 [LAQ, 5-chloro-N-ethyl-4-hydroxy-1-methyl-2-oxo-N-phenyl-1,2-dihydroquinoline-3-carboxamide]
Gene KYNU, after six months of LAQ
  Fold-Change (4.0 vs. 0.0): −1.305
Gene LAD1, six months of treatment
  Fold-Change (4.0 vs. 0.0): −1.15
Gene LAMA1, PBMC, six months of LAQ treatment
  Fold-Change (4.0 vs. 0.0): −1.1216
Gene LAMA4
  Fold-Change (4.0 vs. 0.0): −1.188
Gene LAMA4, PBMC, six months of LAQ treatment
  Fold-Change (4.0 vs. 0.0): −1.117
Gene LAMB1, after six months of LAQ
  Fold-Change (4.0 vs. 0.0): −1.129
Gene LAMB4, PBMC, six months of LAQ treatment
  Fold-Change (4.0 vs. 0.0): −1.105
Gene LDB3
  Fold-Change (4.0 vs. 0.0): −1.188
Gene LDHA, after six months of LAQ
  Fold-Change (4.0 vs. 0.0): −1.126
Gene LDLR, after six months of LAQ
  Fold-Change (4.0 vs. 0.0): −1.1433
Gene LETM1
  Fold-Change (4.0 vs. 0.0): −1.184
Gene LIPF, six months of treatment
  Fold-Change (4.0 vs. 0.0): −1.153
Gene LOC55908
  Fold-Change (4.0 vs. 0.0): −1.1916
Gene LOC79999, PBMC, six months of LAQ treatment
  Fold-Change (4.0 vs. 0.0): −1.118
Gene LOC81691, six months of treatment
  Fold-Change (4.0 vs. 0.0): −1.156
Gene LOC440345 /// LOC440354 /// LOC595101 /// LOC641298 /// SMG1, six months of treatment
  Fold-Change (4.0 vs. 0.0): −1.153
Gene LOC441601, after six months of LAQ
  Fold-Change (4.0 vs. 0.0): −1.246
Gene LOC728395 /// TSPY1 /// TSPY3, PBMC, six months of LAQ treatment
  Fold-Change (4.0 vs. 0.0): −1.106
Gene LOC100131613, after six months of LAQ
  Fold-Change (4.0 vs. 0.0): −1.126
Gene LOC100287483, PBMC, six months of LAQ treatment
  Fold-Change (4.0 vs. 0.0): −1.104
Gene LOC100288442 /// LOC100289169 /// LOC728888 /// LOC729602 /// NPIPL2 /// NPIPL3 /// PDXDC2, PBMC, six months of LAQ treatment
  Fold-Change (4.0 vs. 0.0): −1.115
Gene LOC100289791, six months of treatment
  Fold-Change (4.0 vs. 0.0): −1.1539
Gene LOC100293871, six months of treatment
  Fold-Change (4.0 vs. 0.0): −1.151
Gene LOX, after six months of LAQ
  Fold-Change (4.0 vs. 0.0): −1.133
Gene LPAR3, after six months of LAQ
  Fold-Change (4.0 vs. 0.0): −1.228
Gene LPAR4, after six months of LAQ
  Fold-Change (4.0 vs. 0.0): −1.251
Gene LPHN2, after six months of LAQ
  Fold-Change (4.0 vs. 0.0): −1.134
Gene LRP4
  Fold-Change (4.0 vs. 0.0): −1.189
Gene LRP12, after six months of LAQ
  Fold-Change (4.0 vs. 0.0): −1.423
Gene LRP12, six months of treatment
  Fold-Change (4.0 vs. 0.0): −1.155
Gene LRRC17, six months of treatment
  Fold-Change (4.0 vs. 0.0): −1.152
Gene LRRC19, PBMC, six months of LAQ treatment
  Fold-Change (4.0 vs. 0.0): −1.118
Gene LRRC37B2, six months of treatment
  Fold-Change (4.0 vs. 0.0): −1.152
Gene LRRC50, after six months of LAQ
  Fold-Change (4.0 vs. 0.0): −1.331
Gene LRRC61, after six months of LAQ
  Fold-Change (4.0 vs. 0.0): −1.144
Gene LRRN3, PBMC, six months of LAQ treatment
  Fold-Change (4.0 vs. 0.0): 2.526 and 2.547
Gene LRTM1, six months of treatment
  Fold-Change (4.0 vs. 0.0): −1.159
Gene LYZL6, after six months of LAQ
  Fold-Change (4.0 vs. 0.0): −1.141
Gene LZTS1
  Fold-Change (4.0 vs. 0.0): −1.177
Gene MAGEA6, after six months of LAQ
  Fold-Change (4.0 vs. 0.0): −1.14
Gene MAGEA12, after six months of LAQ
  Fold-Change (4.0 vs. 0.0): −1.14
Gene MAGOH2, six months of treatment
  Fold-Change (4.0 vs. 0.0): −1.149
Gene MAOA, after six months of LAQ
  Fold-Change (4.0 vs. 0.0): −1.137
Gene MAP1A, after six months of LAQ
  Fold-Change (4.0 vs. 0.0): −1.134
Gene MAP2K2, after six months of LAQ
  Fold-Change (4.0 vs. 0.0): −1.262
Gene MAP4K3, after six months of LAQ
  Fold-Change (4.0 vs. 0.0): −1.377
Gene MAPK12, PBMC, six months of LAQ treatment
  Fold-Change (4.0 vs. 0.0): −1.108
Gene MARCH8, six months of treatment
  Fold-Change (4.0 vs. 0.0): −1.161
Gene MCM3AP, six months of treatment
  Fold-Change (4.0 vs. 0.0): −1.147
Gene MDFI, six months of treatment
  Fold-Change (4.0 vs. 0.0): −1.154
Gene MDK, six months of treatment
  Fold-Change (4.0 vs. 0.0): −1.155
Gene MDM2, after six months of LAQ
  Fold-Change (4.0 vs. 0.0): −1.234
Gene MECOM, PBMC, six months of LAQ treatment
  Fold-Change (4.0 vs. 0.0): −1.098
Gene METTL7A, PBMC, six months of LAQ treatment
  Fold-Change (4.0 vs. 0.0): −1.11
Gene MFAP3
  Fold-Change (4.0 vs. 0.0): −1.19
Gene MFAP3L, after six months of LAQ
  Fold-Change (4.0 vs. 0.0): −1.275
Gene MFAP3L, six months of treatment
  Fold-Change (4.0 vs. 0.0): −1.146
Gene MGAT2, after six months of LAQ
  Fold-Change (4.0 vs. 0.0): −1.2251
Gene MLANA, PBMC, six months of LAQ treatment
  Fold-Change (4.0 vs. 0.0): −1.104
Gene MLL, six months of treatment
  Fold-Change (4.0 vs. 0.0): −1.158
Gene MLLT4, after six months of LAQ
  Fold-Change (4.0 vs. 0.0): −1.236
Gene MLLT10, after six months of LAQ
  Fold-Change (4.0 vs. 0.0): −1.125
Gene MLNR, six months of treatment
  Fold-Change (4.0 vs. 0.0): −1.15
Gene MMP16, after six months of LAQ
  Fold-Change (4.0 vs. 0.0): −1.1424
Gene MMP26, after six months of LAQ
  Fold-Change (4.0 vs. 0.0): −1.226
Gene MPPED2, after six months of LAQ
  Fold-Change (4.0 vs. 0.0): −1.1435
Gene MRAS, after six months of LAQ
  Fold-Change (4.0 vs. 0.0): −1.271
Gene MRE11A, six months of treatment
  Fold-Change (4.0 vs. 0.0): −1.153
Gene MSTN, after six months of LAQ
  Fold-Change (4.0 vs. 0.0): −1.1234
Gene MSX2, six months of treatment
  Fold-Change (4.0 vs. 0.0): −1.152
Gene MT1M, after six months of LAQ
  Fold-Change (4.0 vs. 0.0): −1.137
Gene MT4
  Fold-Change (4.0 vs. 0.0): −1.19
Gene MTCP1
  Fold-Change (4.0 vs. 0.0): −1.195
Gene MTMR3, after six months of LAQ
  Fold-Change (4.0 vs. 0.0): −1.302
Gene MTMR7, PBMC, six months of LAQ treatment
  Fold-Change (4.0 vs. 0.0): −1.12
Gene MUC1, after six months of LAQ
  Fold-Change (4.0 vs. 0.0): −1.126
Gene MUC5AC, six months of treatment
  Fold-Change (4.0 vs. 0.0): −1.148
Gene MUC8, after six months of LAQ
  Fold-Change (4.0 vs. 0.0): −1.228
Gene MYBPH, after six months of LAQ
  Fold-Change (4.0 vs. 0.0): −1.136
Gene MYH4, after six months of LAQ
  Fold-Change (4.0 vs. 0.0): −1.14
Gene MYH6, PBMC, six months of LAQ treatment
  Fold-Change (4.0 vs. 0.0): −1.111
Gene MYH11, after six months of LAQ
  Fold-Change (4.0 vs. 0.0): −1.141
